PubChem BioAssay AID1259415 (National Center for Advancing Translational Sciences (NCATS), 2018)
Where “and” joins values, the source holds several entries; their conditions need not be identical. Identical values can stand only once. Screen size: about 410,000 compounds; about 18,000 (4.4%) were called active. The inconclusive results got no clear call from the source; some entries with a clear call stand among them for comparison. Rule as the data show it: active = activity change below about -60%; inconclusive = no clear call, values can overlap the other calls; inactive = above about -39%.
% is scaled to controls: 0 for no effect and ±100 for the full control effect.

Experiment: qHTS Assay for inhibitors of the human cytomegalovirus (HCMV)
Settings: HFF cells, HCMV-luciferase reporter, 72 h; at 57.5 µM; hits give low values
Method in brief: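 Inhibition of viral replication was scored as loss of reporter luminescence in HFFs infected with HCMV-luciferase (MOI 1 PFU/cell) for 72 h; compounds tested at 2 doses, normalized to buffer and Salinomycin controls.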
In the case of `Cc1cc(C)c(C=NNc2nc3c([nH]2)c(=O)n(C)c(=O)n3C)c(C)c1`, the activity change, negative = inhibition is reported as inconclusive: -60%. For `COc1ccc(-n2c(-c3ccco3)nc3c(cnn3-c3ccccc3C)c2=O)cc1`, the activity change, negative = inhibition was inconclusive: -55.5%. With `Cc1cc(NS(=O)(=O)c2ccc(NS(=O)(=O)c3ccc(CC(C)C)cc3)cc2)nc(C)n1` the activity change, negative = inhibition was inconclusive: -56.2%. With `CCOc1ccccc1NC(=S)Nc1ncccc1C` the activity change, negative = inhibition was active: -61.1%. For `CC(NC(=O)c1cccc(C(F)(F)F)c1)C(c1ccccc1)N1CCOCC1` (stereo not drawn), the activity change, negative = inhibition was active: -62.5%. For `O=C(Cn1c(S(=O)(=O)Cc2ccccc2)nc2ccccc21)N1CCCCC1`, the activity change, negative = inhibition was inconclusive: -52.7%. For `CC1CCCCN1Cc1nc2ccccc2c(=O)[nH]1` (stereo not drawn), the activity change, negative = inhibition was inactive: 54%. With `CC1CC(C)CN(C(=O)C2CC(=O)N(c3ccc(F)cc3)C2)C1` (stereo not drawn) the activity change, negative = inhibition was inconclusive: -51%. For `CCOC1=C2CN(S(=O)(=O)c3ccc(C)cc3)[C@H](c3ccccc3)C[C@@H]2N(S(=O)(=O)c2ccccc2)[C@H](c2ccccc2)C1`, the activity change, negative = inhibition was inconclusive: -43.7%. With `C=C(C)Cn1c(=O)n(CC2CS2)c2ccccc21` (stereo not drawn) the activity change, negative = inhibition was inconclusive: -48.9%. With `Cc1ccc(CN(Cc2cccn2-c2nnc(N3CCCC3=O)s2)C(=O)Nc2ccccc2C(F)(F)F)cc1` the activity change, negative = inhibition was inconclusive: -55.2%. In the case of `Cn1nnnc1Sc1ncnc2scc(-c3ccc(Cl)cc3)c12`, the activity change, negative = inhibition is reported as active: -98.1%. With `COc1cc(C2NCC(c3ccc(Cl)cc3Cl)c3c2[nH]c2ccccc32)cc(OC)c1OC` (stereo not drawn) the activity change, negative = inhibition was inconclusive: -49.7%. In the case of `COc1ccccc1NC(=O)N1CCN(c2ccccc2F)CC1`, the activity change, negative = inhibition is reported as inconclusive: -44.5%. In the case of `O=C(O)c1cccc(NC(=O)c2ccc3c(c2)C(=O)N(C2CCCCC2)C3=O)c1`, the activity change, negative = inhibition is reported as inconclusive: -42.9%. With `CCOC(=O)C(C)Sc1ncc(-c2ccccc2)cn1` (stereo not drawn) the activity change, negative = inhibition was inconclusive: -48.6%. With `CCOC(=O)c1cccc(NC(=O)CSc2nc3cccnc3n2C)c1` the activity change, negative = inhibition was inconclusive: -59.3%. With `CCOc1ccc(CCNC(=O)C2CCN(S(=O)(=O)N3CC(C)CC(C)C3)CC2)cc1OCC` (stereo not drawn) the activity change, negative = inhibition was inconclusive: 0%. With `C=CCNS(=O)(=O)c1nc(C)c(Cl)c(C)c1C#N` the activity change, negative = inhibition was inconclusive: -50.8%. In the case of `COc1ccc(C)cc1-n1c(=O)c2ccccc2c2ccccc2c1=O`, the activity change, negative = inhibition is reported as inconclusive: -56.4%. With `CCc1nc(SCC(=O)c2cccc([N+](=O)[O-])c2)n[nH]1` the activity change, negative = inhibition was inconclusive: -53.3%. With `Cc1ccc(NC(=O)CSC2=NN3CCCC(=O)N=C3S2)cc1Cl` the activity change, negative = inhibition was inconclusive: -43.4%. In the case of `CC(NC(=O)COC(=O)/C(=C/c1cccs1)c1cccs1)c1ccccc1` (stereo not drawn), the activity change, negative = inhibition is reported as inconclusive: -58.8%. In the case of `COc1ccc(Nc2c3c(nc4ccc(NC(=O)/C=C/c5cccc(OC)c5OC)cc24)CCCC3)cc1OC`, the activity change, negative = inhibition is reported as active: -97.2%. For `CCC(Oc1ccccc1)C(=O)Nc1ccc(OCc2cc(=O)n3ccccc3n2)cc1` (stereo not drawn), the activity change, negative = inhibition was inconclusive: -45.8%. With `CC(C)(C)CC(C)(C)Nc1c(-c2ccc(O)cc2)nc2cnccn12` the activity change, negative = inhibition was inconclusive: -56%. In the case of `CCOc1ccc(CNC(=O)C2Cc3ccccc3N2C(=O)CC)cc1` (stereo not drawn), the activity change, negative = inhibition is reported as inactive: 4.27%. For `COC(=O)c1ccccc1NC(=O)c1ccc2c(=O)n3c(nc2c1)CCCCC3`, the activity change, negative = inhibition was inconclusive: -46.6%. In the case of `CS/C(=N\S(=O)(=O)c1cccs1)Nc1ccc(F)c(Cl)c1`, the activity change, negative = inhibition is reported as inconclusive: -52.3%. With `O=C(NC1CC(=O)N(c2cccc(F)c2)C1)C(c1ccccc1)c1ccccc1` (stereo not drawn) the activity change, negative = inhibition was inconclusive: -43.5%. With `Cc1ccccc1OCC(=O)Nc1cc(S(=O)(=O)N2CCCCC2)ccc1N1CCN(C)CC1` the activity change, negative = inhibition was inconclusive: -45.5%. With `CCOC(=O)c1ccc(N2C(=O)c3n[nH]c(-c4ccco4)c3C2c2ccc([N+](=O)[O-])cc2)cc1` (stereo not drawn) the activity change, negative = inhibition was inactive: -11.7%. In the case of `Cc1ccsc1C(=O)N1CCCCCC1(C)C(=O)NCC(C)C` (stereo not drawn), the activity change, negative = inhibition is reported as inconclusive: -58.2%. For `COc1ccc(C(=O)NCC(c2ccc(N(C)C)cc2)N2CCc3ccccc32)cc1` (stereo not drawn), the activity change, negative = inhibition was active: -70.8%. In the case of `N#C/C(=C(/O)CN1CCN(c2ccccc2F)CC1)c1nc(-c2ccc(Cl)cc2)cs1`, the activity change, negative = inhibition is reported as inconclusive: -48.3%. With `O=C(O)c1ccccc1Nc1ccc(OC(F)F)cc1` the activity change, negative = inhibition was inconclusive: -55%. For `CCCN(CCC)CCNC(=O)c1sc2nc3n(c(=O)c2c1C)CCCCC3`, the activity change, negative = inhibition was inactive: -17.2%. For `CC(=NNC(=O)CSCC(=O)NN=C(C)c1ccccc1)c1ccccc1`, the activity change, negative = inhibition was inconclusive: -50.2%. With `C=CCN(c1ccccc1OC)S(=O)(=O)c1cccc(C(=O)NCc2cccs2)c1` the activity change, negative = inhibition was active: -63.1%. With `O=C(C1CC(=O)N(c2ccc3c(c2)OCCO3)C1)N1CCN(c2ccccc2O)CC1` (stereo not drawn) the activity change, negative = inhibition was inactive: 19.6%. With `CCN(CC)CCCNc1nc(-n2nc(C)cc2C)nc2sc3c(c12)CC(C)(C)OC3` the activity change, negative = inhibition was inconclusive: -43%. With `COc1cccc(NC(=O)Nc2cc(Cl)ccc2C)c1` the activity change, negative = inhibition was active: -60.4%. In the case of `COc1cccc(NC(=O)CN(C)C(=O)c2ccc(-c3ccccc3Cl)o2)c1`, the activity change, negative = inhibition is reported as inactive: 9.31%. In the case of `Cn1c(-c2c(N)n(C3CCCC3)c3nc4ccccc4nc23)nc2ccccc21`, the activity change, negative = inhibition is reported as inconclusive: -43.2%. With `COc1cc(OC)c(C(=O)OCC(=O)NC2CCCCCCC2)cc1OC` the activity change, negative = inhibition was inconclusive: -40.5%. With `Cc1cccc2sc(N(CCCN(C)C)C(=O)c3ccc(C(=O)c4ccccc4)cc3)nc12` the activity change, negative = inhibition was active: -72.2%. With `CCCOc1ccc(C(=O)NNC(=S)NC(=O)c2cccs2)cc1` the activity change, negative = inhibition was inconclusive: -48.8%. In the case of `O=C(NCN1CCN(c2ccccn2)CC1)c1cnccn1`, the activity change, negative = inhibition is reported as inactive: -19.2%. In the case of `CC(C)Nc1nc(NC(C)C)nc(Oc2ccc(/C=N/O)cc2)n1`, the activity change, negative = inhibition is reported as inconclusive: -41.4%. With `NS(=O)(=O)c1ccc(CCNc2ccn3nc(-c4cccc(C(F)(F)F)c4)cc3n2)cc1` the activity change, negative = inhibition was inactive: -28.5%. In the case of `COc1ccnc(Oc2ccc(C)cc2C)c1C#N`, the activity change, negative = inhibition is reported as inactive: -15.6%. For `CCN(CC(=O)Nc1c(F)cccc1F)C(=O)CNC(=O)c1ccc(C)s1`, the activity change, negative = inhibition was inactive: -8.82%. With `COc1ccccc1/C=C(/C(=O)OCC(=O)Nc1cc(C)ccc1C)c1ccccc1` the activity change, negative = inhibition was inconclusive: -59.1%. For `COc1ccc(CC(=O)N(C)Cc2ccc(C(C)(C)C)cc2)cc1S(=O)(=O)N1CCOCC1`, the activity change, negative = inhibition was inconclusive: -48.5%. For `O=C(CCN1C(=O)c2ccccc2C1=O)C1=NN[C@@H]2C(=O)N(c3cccc(F)c3)C(=O)[C@H]12`, the activity change, negative = inhibition was inconclusive: -42%. In the case of `CS(=O)(=O)c1ccc2nc(NC(=O)c3ccc(=O)[nH]c3)sc2c1`, the activity change, negative = inhibition is reported as inconclusive: -41.2%. With `COc1cccc2sc(=NC(=O)CS(=O)(=O)c3ccc(Cl)cc3)n(C)c12` the activity change, negative = inhibition was inconclusive: -55.8%. For `O=C(c1ccc(-c2ccc(Cl)cc2)o1)N1CCN(S(=O)(=O)c2cccs2)CC1`, the activity change, negative = inhibition was active: -60.6%. In the case of `CO[C@@H]1CN(C)C(=O)c2ccc(NC(=O)c3ccccc3F)cc2OC[C@@H](C)N(CC2CCOCC2)C[C@@H]1C`, the activity change, negative = inhibition is reported as inactive: 15.1%. For `Cc1cccnc1C(c1ccc(F)cc1)N(C)C(=O)C1CCN(CCCOc2ccc(F)cc2)CC1` (stereo not drawn), the activity change, negative = inhibition was inactive: 19.8%. In the case of `CCc1cccc(C)c1NC(=S)N(CCCN1CCN(C)CC1)Cc1cccs1`, the activity change, negative = inhibition is reported as inconclusive: -41.7%. For `COc1ccc(/C=C2\CCc3ccccc3C2=O)cc1OC`, the activity change, negative = inhibition was inconclusive: -43.2%. In the case of `Cc1nc(-c2ccccn2)nc(N(C)c2ccccc2)c1Cl`, the activity change, negative = inhibition is reported as active: -61.2%. For `CCOC(=O)[C@]12Cc3c(cc(OC)c(OC)c3OC)[C@H]1N(C(C)C)C(=O)c1cc(OC)ccc12`, the activity change, negative = inhibition was active: -99.6%. For `Cn1c(=O)oc2cc(S(=O)(=O)NCCC(=O)NCc3ccc(F)cc3)ccc21`, the activity change, negative = inhibition was inactive: -2.75% and inactive: 0%. For `Nc1c(C(=O)N2CCCC2)sc2nc(-c3ccccc3)ccc12`, the activity change, negative = inhibition was inactive: 4.89%. For `CCC(C)NC(=O)c1ccc2c(c1)N(Cc1ccccc1F)C(=O)c1ccccc1S2=O` (stereo not drawn), the activity change, negative = inhibition was inconclusive: -48.5%. In the case of `O=C(Cc1ccccc1)NCC(=O)N1CCN(Cc2cccc(Cl)c2)CC1`, the activity change, negative = inhibition is reported as inconclusive: -48.4%. For `COc1ccc2cc(C3CC=C(COC(C)=O)CN3S(=O)(=O)c3ccccc3[N+](=O)[O-])n(C(=O)OC(C)(C)C)c2c1` (stereo not drawn), the activity change, negative = inhibition was inactive: -5.08%. For `O=C(NCC1CCCO1)c1ccc(Br)c(S(=O)(=O)N2CCOCC2)c1` (stereo not drawn), the activity change, negative = inhibition was inactive: -35.2%. For `Cc1ccc(S(=O)(=O)Nc2cccc3cccnc23)cc1`, the activity change, negative = inhibition was active: -105%. In the case of `CC(=O)c1ccccc1NC(=O)c1ccc(OCc2c(C)noc2C)cc1`, the activity change, negative = inhibition is reported as inconclusive: -48.2%. For `C(=C\c1nnc2c3ccccc3ncn12)/c1ccccc1`, the activity change, negative = inhibition was inconclusive: -52.9%. In the case of `COCCNC(=O)c1c[nH]c2ccc(S(=O)(=O)N3CCOCC3)cc2c1=O`, the activity change, negative = inhibition is reported as inconclusive: -47.5%. For `Cc1ccc(CNC(=O)c2sc3nc(-c4ccccc4)cn3c2C)cc1`, the activity change, negative = inhibition was inconclusive: -41%. With `NS(=O)(=O)c1ccc(NC(=O)COC(=O)c2c3c(nc4ccccc24)/C(=C\c2ccc4c(c2)OCO4)CCC3)cc1` the activity change, negative = inhibition was inconclusive: -57.6%. With `COc1cccc(NC(CNS(=O)(=O)c2ccc(Cl)cc2)c2ccccc2)c1` (stereo not drawn) the activity change, negative = inhibition was active: -99.8%. With `O=C(N/N=C/c1cc(Cl)ccc1O)c1ccc(Br)cc1` the activity change, negative = inhibition was active: -102%. In the case of `C/C(=N/Nc1ccc([N+](=O)[O-])cc1)c1c[nH]c2ccccc12`, the activity change, negative = inhibition is reported as inactive: 75.4%. For `CCc1nc2ccc(C(=O)NCc3ccc(SC)cc3)cc2nc1CC`, the activity change, negative = inhibition was inactive: 77.5%. For `Cc1nc(-c2ccc(Cl)cc2)sc1C1(C)CC(c2cccc(F)c2)=NO1` (stereo not drawn), the activity change, negative = inhibition was inconclusive: -47.4%. In the case of `CCOc1ccccc1CNC(=O)c1cnc2sc(N3CCOCC3)nn2c1=O`, the activity change, negative = inhibition is reported as inconclusive: -47.4%. For `Cc1ccc(CCNC(=O)CCn2ccc3cc(S(=O)(=O)N4CCCC4)ccc32)cc1`, the activity change, negative = inhibition was inconclusive: -40.1%.
